Data as given in PubChem BioAssay AID2685 (National Center for Advancing Translational Sciences (NCATS), 2010).
About 2,100 (0.66%) of roughly 320,000 compounds were called active. The shares of active, inactive and inconclusive entries below differ from those in the screen. Calls come from the whole dose curve; as a rule, active = well fitted inhibition curve with a large enough effect in the signal ratio, with a control signal flat (not every such curve was filed as active); inconclusive = small, poorly fitted or top-dose-only effect, or effect the other way, or a change in a side signal; inactive = flat fitted curve, though single readings scatter; the % refers to the signal ratio. Potencies beside an inconclusive call are fits to weak or partial responses and may not hold up.
% is set by controls: 0 for no effect and ±100 for the full control effect; potency is the fitted concentration of half-maximal effect.

Experiment: qHTS Assay for Lipid Storage Modulators in Drosophila S3 Cells
Settings: BODIPY lipid droplet fluorescence, 18-24 h, cells fed with added oleic acid; lipid storage change, negative = inhibition: at 46.1 µM (top of the series) unless noted
Outline: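 Drosophila S3 cells got compounds at several concentrations plus oleic acid (400 uM solution). Laser-scanning cytometry with 488 nm excitation read lipid droplets at 500-530 nm and cells at 575-640 nm. Percent activity was relative to 20 uM Triacsin C.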
With `O=C(NCCOc1ccccc1F)c1cc(F)c(F)cc1Cl` the Potency was inconclusive: 0.146 µM [activator, full curve, poor fit]. For `COC(=O)c1c(C)[nH]c(C(=O)/C=C/c2ccccc2)c1C`, the lipid storage change, negative = inhibition was inconclusive: 14.4%. With `Cc1ccc(S(=O)(=O)N2CCCC2C(=O)Nc2cc(C)on2)cc1` (stereo unspecified) the lipid storage change, negative = inhibition was inconclusive: -33.4%. In the case of `Cc1ccc2c(c1)N(CC(=O)NCC(C)c1ccccc1)C(=O)c1cccnc1O2` (stereo unspecified), the lipid storage change, negative = inhibition is reported as inconclusive: 45.7%. With `O=C(CCCOc1ccccc1)Nc1ccc(Cl)cn1` the lipid storage change, negative = inhibition was inconclusive: 52.4%. In the case of `Cc1cc(C)c(O)c(-c2cc(C(=O)Nc3cccnc3)[nH]n2)c1`, the lipid storage change, negative = inhibition is reported as “inactive”. For `COC(=O)CCCC1=CC2=C(c3ccccc3)C(=O)C(C)(OC(=O)C3CCCC3)C(=O)C2=CN1Cc1ccc(OC)cc1` (stereo unspecified), the lipid storage change, negative = inhibition was inconclusive: -20.2%. With `Cc1cc(C)nc(NC(=O)c2c(Cl)cccc2Cl)n1` the lipid storage change, negative = inhibition was “inactive”. In the case of `CCOc1ccc(NS(=O)(=O)c2ccc(C(=O)NC3CCC(O)CC3)cc2)cc1` (stereo unspecified), the lipid storage change, negative = inhibition is reported as inconclusive: -0.92%. For `O=C(NCCc1ccccc1)c1ccc(CS(=O)(=O)Cc2ccc(F)cc2)o1`, the lipid storage change, negative = inhibition was inconclusive: 51.5%. With `O=C(Nc1cccc(S(=O)(=O)N2CCOCC2)c1)c1cn(-c2ccccc2)nc1-c1ccc(F)cc1` the Potency was inconclusive: 0.13 µM [activator, full curve, poor fit]. With `CSc1nc2c(c(=O)[nH]c(=O)n2C)n1Cc1ccc(Cl)cc1` the Potency was inconclusive: 0.259 µM [activator, full curve, poor fit]. In the case of `O=C(O)c1cc2sccc2s1`, the Potency is reported as inconclusive: 32.6 µM [falling, single point]. With `Cc1ccc(CS(=O)Cc2ccc(C(=O)NC3CCC(C)CC3)o2)cc1` (stereo unspecified) the lipid storage change, negative = inhibition was inconclusive: 13.1%. With `CCOC(=O)c1cn(-c2ccc([N+](=O)[O-])cc2)c2cc(Cl)c([N+](=O)[O-])cc2c1=O` the lipid storage change, negative = inhibition was inconclusive: 0.252%. With `COc1ccccc1N1CCN(CC(O)COc2c(OC)cccc2OC)CC1` (stereo unspecified) the Potency was inconclusive: 0.92 µM [falling, full curve]. With `COc1ccc(C)cc1-n1nnnc1SCc1cn2ccsc2n1` the lipid storage change, negative = inhibition was inconclusive: 45%. With `Cc1ccc(F)cc1NC(=O)COC(=O)COc1ccc(C#N)cc1` the lipid storage change, negative = inhibition was inconclusive: -4.61%. In the case of `Cc1cc(Nc2ccccc2)c2c([N+](=O)[O-])c(C)cc(C)c2n1`, the lipid storage change, negative = inhibition is reported as inconclusive: -16.8%. With `O=S(=O)(c1ccc(Nc2ccc3c(c2)OCO3)nc1)N1CCOCC1` the lipid storage change, negative = inhibition was inconclusive: 26%. With `COc1cc([N+](=O)[O-])cc2sc(NC(=O)C3CC3)nc12` the lipid storage change, negative = inhibition was inconclusive: -14.8%. In the case of `O=C(CN1CCN(S(=O)(=O)c2ccccc2)CC1)Nc1ccccc1C(=O)NC1CC1`, the lipid storage change, negative = inhibition is reported as inconclusive: -1.37%. For `CC(C)N1CCc2c(sc(NC(=O)c3ccc(S(=O)(=O)N4CCc5ccccc54)cc3)c2C(N)=O)C1`, the lipid storage change, negative = inhibition was inconclusive: -19.6%. In the case of `CCOC(=O)C1CCN(CCC(=O)Nc2ccc(F)cc2)CC1`, the lipid storage change, negative = inhibition is reported as inconclusive: 36.1%. In the case of `CCOC(=O)C(C(=O)OCC)C(Nc1ccccc1)c1ccccc1` (stereo unspecified), the Potency is reported as inconclusive: 29.1 µM [falling, single point]. For `COc1cc(Br)c(CC(=O)NC2CC2)cc1OC`, the lipid storage change, negative = inhibition was inconclusive: 331%. In the case of `CC(=O)c1c(C)[nH]c(C(=O)OCC(=O)Nc2sc3c(c2C#N)CCCC3)c1C`, the Potency is reported as inconclusive: 2.31 µM [activator, partial curve]. With `O=C(/C=C/c1ccccc1Cl)c1ccc[nH]1` the lipid storage change, negative = inhibition was inconclusive: -8.66%. For `COc1ccc(CNCCC(c2ccccc2)c2ccc3c(c2)OCO3)cc1` (stereo unspecified), the lipid storage change, negative = inhibition was inconclusive: -29.4%. With `O=C(CSCc1ccc(Cl)cc1)Nc1ccccc1O` the lipid storage change, negative = inhibition was inconclusive: -22.3% [at 9.22 µM]. With `O=C(O)CC/C(=C\c1ccc(N2CCCC2)c([N+](=O)[O-])c1)c1nc2ccccc2s1` the lipid storage change, negative = inhibition was inconclusive: 8.81%. In the case of `Cc1cccc(CCNC(=O)CCNC(=O)Cn2ccc3ccccc3c2=O)c1`, the Potency is reported as inconclusive: 9.2 µM [cytotoxic, partial curve]. For `Cn1c(/C=C/c2ccc([N+](=O)[O-])o2)nc2ccccc2c1=O`, the Potency was inconclusive: 7.31 µM [falling, partial curve]. With `COc1cc(C2C(C#N)=C(N)OC3=C2C(=O)CCC3)cc(OC)c1OC(=O)N1CCOCC1` (stereo unspecified) the Potency was inconclusive: 0.0052 µM [falling, full curve, poor fit]. In the case of `Cc1ccc(C)c(C(=O)COC(=O)c2cccc(N3C(=O)c4c(C)nc5ccccc5c4C3=O)c2)c1`, the lipid storage change, negative = inhibition is reported as inconclusive: 77.3%. In the case of `CC(O)c1c(-c2ccccc2)nn(C)c1Cl` (stereo unspecified), the lipid storage change, negative = inhibition is reported as inconclusive: -10.5%. In the case of `COc1cccc(NC(=O)CN2CCN(CC(=O)Nc3ccccc3Cl)CC2)c1`, the lipid storage change, negative = inhibition is reported as inconclusive: -85%. In the case of `CC(C)c1ccc(OCC(=O)NNC(=S)NC(=O)c2cccs2)c(Br)c1`, the lipid storage change, negative = inhibition is reported as inconclusive: 152%. For `Cc1cc(C)c(OCC(=O)Nc2ccc(S(=O)(=O)N3CCOCC3)cc2)c(C)c1`, the Potency was active: 2.31 µM. With `Cc1cc(=O)n2nc(N3CCC(C(=O)N4CCN(C)CC4)CC3)sc2n1` the Potency was active: 6.51 µM. In the case of `Cc1ccc(OCCC(=O)OCC(=O)NC2CCCC2)cc1`, the lipid storage change, negative = inhibition is reported as inconclusive: -7.89%. With `COc1ccc(NC(=O)C2CCCN(S(C)(=O)=O)C2)cc1OC` (stereo unspecified) the Potency was inconclusive: 0.146 µM [activator, full curve]. With `CCCn1c(SC(C)C(=O)NCC2CCCO2)nc2sc(CC)cc2c1=O` (stereo unspecified) the Potency was inconclusive: 5.17 µM [activator, full curve, poor fit]. In the case of `COc1ccccc1NC(=O)c1ccccc1NS(=O)(=O)c1cccs1`, the lipid storage change, negative = inhibition is reported as inconclusive: -19.3%. With `COc1ccccc1-c1c(C)nn2c(N3CCCCCC3)cc(C)nc12` the Potency was inconclusive: 29.1 µM [falling, single point]. For `Cc1ccc(S(=O)(=O)NNC(=O)c2ccc(F)cc2)cc1`, the Potency was inconclusive: 20.6 µM [activator, single point]. For `CCc1ccccc1-n1ncc(C(=O)Nc2ccccc2OC)c1C`, the lipid storage change, negative = inhibition was inconclusive: 11.1%. For `COc1cc2c(cc1OC)C1Cc3ccc(OC)c(OC)c3CN1CC2` (stereo unspecified), the Potency was inconclusive: 29.1 µM [activator, single point]. In the case of `Cc1ccc([N+](=O)[O-])cc1N(CC(=O)N1CCCCC1)S(C)(=O)=O`, the Potency is reported as inconclusive: 6.51 µM [rising, single point]. In the case of `O=C(COC(=O)C1=COCCO1)NCCCc1ccccc1`, the Potency is reported as inconclusive: 0.0065 µM [falling, full curve, poor fit]. With `O=C(CN1CCN(c2ccc(Cl)cc2)CC1)N1CCCC1` the lipid storage change, negative = inhibition was inconclusive: -7.74%. With `CCN(CC)S(=O)(=O)c1ccc(Cl)c(NC(=O)COC(=O)c2cc(-c3ccccc3Cl)nc3ccccc23)c1` the lipid storage change, negative = inhibition was inconclusive: 26.9%. For `CCn1cc(/C=N\NC(=O)COc2cccc(C)c2C)c(C)n1`, the lipid storage change, negative = inhibition was inconclusive: 17.3%. For `O=C(Nc1cccc(NC(=O)c2ncn[nH]2)c1)c1cccc(Cl)c1`, the lipid storage change, negative = inhibition was inconclusive: 17.5%. With `CCOC(=O)CSc1nc2cc(C(=O)N3CCCC3)ccc2c(=O)n1Cc1ccccc1` the lipid storage change, negative = inhibition was inconclusive: 281%. With `CC(=O)N1CCN(c2cccc(C)c2C)CC1` the lipid storage change, negative = inhibition was inconclusive: -47.8%. With `COc1cc(NC(=S)N2CCCC(C)C2)cc(OC)c1OC` (stereo unspecified) the Potency was inconclusive: 29.1 µM [rising, single point]. For `O=C(CSc1nc2ncc(Cl)cc2[nH]1)N(Cc1ccccc1)C1CCS(=O)(=O)C1` (stereo unspecified), the lipid storage change, negative = inhibition was inconclusive: 6.29%. In the case of `O=C(CCCN1C(=O)/C(=C/c2cccc(Br)c2)SC1=S)NCCCN1CCOCC1`, the Potency is reported as inconclusive: 6.51 µM [falling, partial curve, poor fit]. In the case of `Cc1ccc(S(=O)(=O)N2CCOCC2)cc1NC(=O)COc1ccc(-c2nnco2)cc1`, the lipid storage change, negative = inhibition is reported as inconclusive: 38.4%. In the case of `COC(=O)c1c(NC(=O)CN2CCN(c3cccc(Cl)c3)CC2)sc(C)c1C`, the lipid storage change, negative = inhibition is reported as inconclusive: 21.3%. For `CCNc1nc(NCC)nc(SCCOC(=O)Nc2ccc(Cl)cc2Cl)n1`, the Potency was inconclusive: 7.31 µM [rising, partial curve]. For `Fc1cccc(Cl)c1CSc1ccc(-c2ccco2)nn1`, the lipid storage change, negative = inhibition was inconclusive: -17.8%. With `Cc1ccc([N+](=O)[O-])cc1NC(=S)NC(=O)c1cccnc1` the lipid storage change, negative = inhibition was inconclusive: 3.58%. For `O=C(Nc1nc(-c2ccc(F)c(F)c2)cs1)c1cc([N+](=O)[O-])ccc1N1CCOCC1`, the Potency was inconclusive: 1.46 µM [activator, full curve]. With `Cn1nccc1C(=O)Nc1cccc(C(F)(F)F)c1` the lipid storage change, negative = inhibition was inconclusive: -4.6%. In the case of `O=C(Nc1ccc(-c2ccc(N3CCCCC3)nn2)cc1)c1ccco1`, the lipid storage change, negative = inhibition is reported as inconclusive: 29.8%. In the case of `Cc1ccc(NC2CCCN(C(=O)Cc3nonc3C)C2)cc1C` (stereo unspecified), the lipid storage change, negative = inhibition is reported as inconclusive: 28.9%. With `CNC(=O)c1sccc1SCc1ccc(Cl)cc1Cl` the lipid storage change, negative = inhibition was inconclusive: 5.96%. With `CCOC(=O)c1cnc(-c2ccccc2)nc1Oc1ccc(Cl)c(Cl)c1` the lipid storage change, negative = inhibition was inconclusive: 7.08%. For `COc1cc(NC(=O)c2ccco2)c(OC)cc1NC(=O)c1cc(OC)c(OC)c(OC)c1`, the lipid storage change, negative = inhibition was inconclusive: 18.9%. With `O=C(Cn1cnc2ccccc21)OCC(=O)N1CCc2ccccc2C1` the Potency was inconclusive: 0.103 µM [activator, full curve, poor fit]. For `CCCc1sc(C(=O)Nc2nnc(C3CC3)s2)cc1CC`, the lipid storage change, negative = inhibition was “inconclusive”. In the case of `Cc1ccc(C(=O)Cn2c3[n+](c4ccccc42)CC(O)CS3)cc1` (stereo unspecified), the lipid storage change, negative = inhibition is reported as “inactive”. In the case of `O=C(COc1ccccc1C(=O)NCC1CCCO1)Nc1ccc(Cl)cc1Cl` (stereo unspecified), the lipid storage change, negative = inhibition is reported as inconclusive: -43.5% [cytotoxic] [at 0.369 µM]. With `Oc1ccc(/C=C/c2cc(O)cc(O)c2)cc1` the Potency was inconclusive: 16.4 µM [activator, single point].
